## Drug screen on melanoma cell lines: apoptosis marker

Source: doi:10.1371/journal.pone.0140310, primary screening data, rounded.

Compounds and concentrations:
bortezomib: CC(C)C[C@H](NC(=O)[C@H](Cc1ccccc1)NC(=O)c1cnccn1)B(O)O at 0.005 µM
BMS-536924: Cc1cc(N2CCOCC2)cc2[nH]c(-c3c(NC[C@@H](O)c4cccc(Cl)c4)cc[nH]c3=O)nc12 at 1 µM
T0901317: O=S(=O)(c1ccccc1)N(CC(F)(F)F)c1ccc(C(O)(C(F)(F)F)C(F)(F)F)cc1 at 7 µM
erlotinib: C#Cc1cccc(Nc2ncnc3cc(OCCOC)c(OCCOC)cc23)c1 at 4 µM
XAV939: Oc1nc(-c2ccc(C(F)(F)F)cc2)nc2c1CSCC2 at 10 µM

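Human melanoma cell lines in 1,536-well plates were treated with two drugs together for 72 h, then fixed, stained and imaged. Values are the share of nuclei positive for cleaved PARP as a percentage of the same share in the DMSO control: 100 is the control level, higher means more apoptosis. Every drug was used at one fixed concentration, the higher of two screened. The file gives one value for each pair and line, without errors, so small differences may be noise. The marker varies much from line to line, for technical or biological reasons.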 Only some of the drugs and lines screened are listed, without regard to their results. A dash means that no value is listed here.

Cell line,XAV939 and T0901317,XAV939 and erlotinib,erlotinib and T0901317,BMS-536924 and T0901317,bortezomib and XAV939,bortezomib and T0901317
COLO 792,84.0,402,159,88.3,67.2,589
IPC-298,24.4,50.8,131,105,179,6110
MeWo,57.5,31.3,134,43.8,137,3140
UACC-62,337,117,231,40.3,211,233
A2058,125,166,167,108,114,1760
A375,86.4,77.3,88.5,94.0,54.7,63.9
WM1745,138,197,196,165,-,-
COLO 800,67.7,125,152,142,74.8,175
UACC-257,27.0,93.8,116,22.8,34.0,29.4
RPMI-7951,80.3,144,99.6,51.4,59.7,398
SK-MEL-2,199,102,80.6,46.1,79.5,279
MEL-HO,54.1,29.9,57.1,71.9,87.6,2030
G-361,23.8,143,161,169,127,11500
WM3526,66.5,97.9,156,51.1,184,2040
WM1716,65.2,141,41.9,12.0,1110,15000
SK-MEL-30,76.2,90.3,49.8,75.8,104,456
IST-MEL1,56.3,107,246,48.8,124,838
WM451Lu,18.4,76.4,57.8,57.5,272,3470
WM3619,132,127,111,102,117,4120
MZ2-MEL,148,112,133,76.6,54.5,28400
WM115,101,136,121,135,248,2320
LOX IMVI,54.5,92.0,133,591,106,320
COLO 829,20.0,99.2,65.0,89.4,16.2,3650
SK-MEL-28,110,51.0,41.8,57.3,55.4,151
501mel,142,220,175,207,242,541
A101D,107,194,136,26.5,136,100
RVH-421,223,64.7,286,134,221,365
C32,91.4,91.1,102,87.7,96.1,4300
LB2518-MEL,74.6,94.6,93.4,65.0,121,6750
SK-MEL-5,170,494,338,120,79.5,3920